Measurements reported in PubChem BioAssay AID322 (DTP/NCI, 2004).
The list shows only some results of the screen, not a fair sample: it gathers tests that were run many times, whatever their T/C, doses with no T/C, and many T/C values between a quarter and a half above the control. Further doses and runs are listed elsewhere. T/C gives the treated animals as a percentage of the vehicle group. Some doses have a count of surviving animals in place of a T/C: the source holds a T/C of zero for them, seemingly a mark for toxic or unscored doses. Some doses without a T/C left all or most animals alive at the check, yet need not have been tolerated: the source hardly ever lists a survival T/C far under the control, and the zero likely stands for such cases as well. Survivors were counted at the toxicity check, usually on the fifth day, unless a day is given; later deaths do not show. Schedule codes are those of the source, read here as Q, the interval in days (D) or hours (H), X, the number of doses. Some entries were tested several times; their values stand side by side, smallest first. Where survival is the endpoint, the PubChem record calls one and a half times the control and up active, and a quarter to a half above the control has no call in these data; cut-offs in other NCI protocols can differ. Some T/C values are followed by the survivors on the day toxicity was checked, most often the fifth; without a count, all were alive then. *1 amine or outer side, *2 acyl side, *3 side chain or, on linkers, in order; H or OH if unused. Where a SMILES comes first, the peptide text is derived from it. Bridges are numbered along the chain shown (N, C = ends). Roman numbers before positions name the chains, in order. [ ]: non-standard residue; d: D form. Actinocin(9to1) = Cc1c2oc3c(C)ccc(C(=O)[*:1])c3nc-2c(C(=O)[*:2])c(N)c1=O; aThr = C[C@H](O)[C@H](N)C(=O)O; NMeV = CN[C@H](C(=O)O)C(C)C; Sar = CNCC(=O)O

Tested on: CD2F1 mice, P388/ADR leukemia ip, median survival T/C
Experiment: NCI In Vivo Anticancer Drug Screen. Data for tumor model P388 Leukemia resistant to Adriamycin; NSC 123127, Developed at Scr 08 (intraperitoneal) in CD2F1 (CDF1) mice
Conditions: T/C endpoint: median survival time, higher T/C = longer survival
Protocol: The antitumor activity of compounds was measured in mice bearing transplantable tumors. Survival or tumor size were measured and the results are expressed as the measurement made in the treated group (T) divided by the measurement made in the vehicle treated control group (C). The tumor model used in this assay is P388 Leukemia resistant to Adriamycin; NSC 123127, Developed at Scr 08 (intraperitoneal) in CD2F1 (CDF1) mice

[1] = dose: 100.0 mg/kg/injection, schedule: Q01DX005 (ip), vehicle: saline with Tween-80
[2] = dose: 200.0 mg/kg/injection, schedule: Q01DX005 (ip), vehicle: saline with Tween-80
[3] = dose: 1111.11 mg/kg/injection, schedule: Q01DX005 (ip), vehicle: saline with Tween-80
[4] = dose: 50.0 mg/kg/injection, schedule: Q01DX005 (ip), vehicle: Klucel (hydroxypropylcellulose) (HPC)

BrC[P+](CBr)(CBr)CBr
T/C [1]: 125 % of control | T/C (dose: 144.0 mg/kg/injection, schedule: Q01DX005 (ip), vehicle: saline with Tween-80): 126 % of control | T/C [2]: 128 and 132 % of control | T/C (dose: 240.0 mg/kg/injection, schedule: Q01DX005 (ip), vehicle: saline with Tween-80): 134 % of control | T/C (dose: 400.0 mg/kg/injection, schedule: Q01DX005 (ip), vehicle: saline with Tween-80): 126 [8 of 10 alive], 127 [9 of 10 alive], 132 [8 of 10 alive], 170 % of control | survivor count (dose: 666.67 mg/kg/injection, schedule: Q01DX005 (ip), vehicle: saline with Tween-80): 3 of 10 | survivor count (dose: 800.0 mg/kg/injection, schedule: Q01DX005 (ip), vehicle: saline with Tween-80): 0 of 10 and 3 of 10 | T/C [3]: 133 % of control [8 of 10 alive] | survivor count [3]: 0 of 10

Cc1c2oc3c(C)ccc(C(=O)N[C@@H]4C(=O)N[C@H](C(C)C)C(=O)N5CCC[C@H]5C(=O)N(C)CC(=O)N(C)[C@@H](C(C)C)C(=O)O[C@H]4C)c3nc-2c(C(=O)N[C@@H]2C(=O)N[C@H](C(C)C)C(=O)N3CCC[C@H]3C(=O)N(C)CC(=O)N(C)[C@@H](C(C)C)C(=O)O[C@H]2C)c(N)c1=O (I: [aThr][dV]P[Sar][NMeV] / II: [aThr][dV]P[Sar][NMeV]; ester I:1-I:C, II:1-II:C; linker I:N-II:N via Actinocin(9to1))
T/C (dose: 6.25 micrograms/kg/injection, schedule: Q01DX005 (ip), vehicle: saline + alcohol): 133 % of control | T/C (dose: 12.5 micrograms/kg/injection, schedule: Q01DX005 (ip), vehicle: saline + alcohol): 137 % of control

CC1=C(C(N)=O)C(c2ccccc2)NC(=S)N1 (stereo not given)
survivor count [4]: 10 of 10 | survivor count (dose: 100.0 mg/kg/injection, schedule: Q01DX005 (ip), vehicle: Klucel (hydroxypropylcellulose) (HPC)): 10 of 10 | survivor count (dose: 200.0 mg/kg/injection, schedule: Q01DX005 (ip), vehicle: Klucel (hydroxypropylcellulose) (HPC)): 9 of 10 | survivor count (dose: 400.0 mg/kg/injection, schedule: Q01DX005 (ip), vehicle: Klucel (hydroxypropylcellulose) (HPC)): 8 of 10

COc1cccc2c1C(=O)c1c(O)c3c(c(O)c1C2=O)CC(O)(C(=O)CO)CC3OC1CC(N)C(I)C(C)O1 (stereo not given)
T/C (dose: 7.5 mg/kg/injection, schedule: Q01DX001 (ip), vehicle: saline): 128 % of control | T/C (dose: 11.2 mg/kg/injection, schedule: Q01DX001 (ip), vehicle: saline, evaluated on day 30): 144 % of control | T/C (dose: 11.2 mg/kg/injection, schedule: Q01DX001 (ip), vehicle: saline, evaluated on day 60): 141 % of control | T/C (dose: 16.8 mg/kg/injection, schedule: Q01DX001 (ip), vehicle: saline): 137 % of control

N=C(N)c1ccc(N=NNc2ccc(C(=N)N)cc2)cc1
survivor count [1]: 0 of 10 | survivor count [2]: 0 of 10

O=P1(N(CCCl)CCCl)NCCCO1 (stereo not given)
T/C (dose: 6.25 mg/kg/injection, schedule: Q01DX005 (ip), vehicle: saline): 140 and 144 % of control | T/C (dose: 12.5 mg/kg/injection, schedule: Q01DX005 (ip), vehicle: saline): 147 % of control

Nc1ccc2c(c1)CN1C(=O)c3ccccc3C1=N2
T/C (dose: 112.0 mg/kg/injection, schedule: Q01DX009 (ip), vehicle: saline with Tween-80, evaluated on day 30): 131 % of control | T/C (dose: 112.0 mg/kg/injection, schedule: Q01DX009 (ip), vehicle: saline with Tween-80, evaluated on day 60): 135 % of control

O=[N+]([O-])c1ccc([I+]c2ccccc2)cc1
T/C (dose: 25.0 mg/kg/injection, schedule: Q01DX005 (ip), vehicle: saline with Tween-80): 128 % of control | T/C (dose: 36.0 mg/kg/injection, schedule: Q01DX005 (ip), vehicle: saline with Tween-80): 139 % of control [9 of 10 alive] | T/C (dose: 50.0 mg/kg/injection, schedule: Q01DX005 (ip), vehicle: saline with Tween-80): 135 % of control | T/C (dose: 60.0 mg/kg/injection, schedule: Q01DX005 (ip), vehicle: saline with Tween-80): 137 % of control [8 of 10 alive] | survivor count [1]: 4 of 10 | survivor count (dose: 166.67 mg/kg/injection, schedule: Q01DX005 (ip), vehicle: saline with Tween-80): 1 of 10 | survivor count (dose: 277.78 mg/kg/injection, schedule: Q01DX005 (ip), vehicle: saline with Tween-80): 0 of 10

COC1CC2C=C(C)/C=C/C=C/C(=O)NC(c3ccccc3)C/C=C/CCC(O)CC(=O)C2=C1O (stereo not given)
survivor count (dose: 12.5 mg/kg/injection, schedule: Q01DX005 (ip), vehicle: Klucel (hydroxypropylcellulose) (HPC)): 10 of 10 | survivor count (dose: 25.0 mg/kg/injection, schedule: Q01DX005 (ip), vehicle: Klucel (hydroxypropylcellulose) (HPC)): 3 of 10 | survivor count [4]: 1 of 10

CNC(=O)OCc1nc(SC)n(C)c1COC(=O)NC
T/C (dose: 34.0 mg/kg/injection, schedule: Q01DX005 (ip), vehicle: saline): 144 % of control | T/C (dose: 80.0 mg/kg/injection, schedule: Q01DX005 (ip), vehicle: saline): 131 % of control | survivor count (dose: 115.0 mg/kg/injection, schedule: Q01DX005 (ip), vehicle: saline): 9 of 10 | survivor count (dose: 172.0 mg/kg/injection, schedule: Q01DX005 (ip), vehicle: saline): 10 of 10

CC1(C)N=C(N)N=C(N)N1c1ccc(CCCCc2ccc(S(=O)(=O)F)cc2Cl)c(Cl)c1
survivor count (dose: 60.0 mg/kg/injection, schedule: Q01DX009 (ip), vehicle: saline with Tween-80): 10 of 10
